System: CA1 neurons
Assay: Sub-chronic in vivo treatment of 3×Tg-AD mice, passive membrane properties from CA1 neurons
Design: species or system mouse
Settings: 10 mg/kg ip, 4 weeks

Compound	RMP [mV]
O=C(Cc1ccccc1)N/N=C/c1ccc(-c2ccccc2)o1 [CK013]	−69.5 ± 0.4
O=C(N/N=C/c1ccc(-c2ccc(Cl)cc2)o1)N/N=C/c1ccc(-c2ccc(Cl)cc2)o1 [CK017]	−69.0 ± 0.2
